Data reported in PMC11065422.
These are yes or no findings as the source states them, for the method shown. Binding seen in cells or lysates may run through a third protein. Binding can be weak; no strength is given.

Biological target: Numb (mouse (endogenous in C2C12))
Test: co-IP; IP of endogenous Numb with anti-Numb antibody (control Ig) from lysates of three independent samples of C2C12 myotubes; Western blot with anti-Septin 7 and anti-Numb

B1: Septin 7 (protein, UniProt O55131 1-436)
chain: MSVSARSAAAEERSVNCGTMAQPKNLEGYVGFANLPNQVYRKSVKRGFEFTLMVVGESGLGKSTLINSLFLTDLYSPEYPGPSHRIKKTVQVEQSKVLIKEGGVQLLLTIVDTPGFGDAVDNSNCWQPVIDYIDSKFEDYLNAESRVNRRQMPDNRVQCCLYFIAPSGHGLKPLDIEFMKRLHEKVNIIPLIAKADTLTPEECQQFKKQIMKEIQEHKIKIYEFPETDDEEENKLVKKIKDRLPLAVVGSNTIIEVNGKRVRGRQYPWGVAEVENGEHCDFTILRNMLIRTHMQDLKDVTNNVHYENYRSRKLAAVTYNGVDNNKNKGQLTKSPLAQMEEERREHVAKMKKMEMEMEQVFEMKVKEKVQKLKDSEAELQRRHEQMKKNLEAQHKELEEKRRQFEEEKANWEAQQRILEQQNSSRTLEKNKKKGKIF
B1 was tested, and the binding was “binds”.
